Measurements as given in the supplement of paper PMC10849652.
The list shows a part of the results.

Protein sequences, listed by entry. Tags and fused reporters are not part of them. Lines headed by an entry give the natural chain unless they say otherwise; changes in a name come on top.
UniProt Q9Y664: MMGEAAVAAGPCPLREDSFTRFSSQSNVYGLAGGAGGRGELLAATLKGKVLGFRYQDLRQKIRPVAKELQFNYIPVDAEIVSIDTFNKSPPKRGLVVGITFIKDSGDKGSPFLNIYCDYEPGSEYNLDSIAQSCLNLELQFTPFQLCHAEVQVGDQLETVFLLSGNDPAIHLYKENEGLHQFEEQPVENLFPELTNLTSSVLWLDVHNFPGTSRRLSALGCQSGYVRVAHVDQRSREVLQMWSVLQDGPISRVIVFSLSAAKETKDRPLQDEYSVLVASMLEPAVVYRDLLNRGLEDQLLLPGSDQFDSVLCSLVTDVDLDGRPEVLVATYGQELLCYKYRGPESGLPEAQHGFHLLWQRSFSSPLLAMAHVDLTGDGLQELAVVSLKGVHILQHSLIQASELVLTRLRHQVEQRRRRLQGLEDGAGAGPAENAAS
UniProt Q8IVT5: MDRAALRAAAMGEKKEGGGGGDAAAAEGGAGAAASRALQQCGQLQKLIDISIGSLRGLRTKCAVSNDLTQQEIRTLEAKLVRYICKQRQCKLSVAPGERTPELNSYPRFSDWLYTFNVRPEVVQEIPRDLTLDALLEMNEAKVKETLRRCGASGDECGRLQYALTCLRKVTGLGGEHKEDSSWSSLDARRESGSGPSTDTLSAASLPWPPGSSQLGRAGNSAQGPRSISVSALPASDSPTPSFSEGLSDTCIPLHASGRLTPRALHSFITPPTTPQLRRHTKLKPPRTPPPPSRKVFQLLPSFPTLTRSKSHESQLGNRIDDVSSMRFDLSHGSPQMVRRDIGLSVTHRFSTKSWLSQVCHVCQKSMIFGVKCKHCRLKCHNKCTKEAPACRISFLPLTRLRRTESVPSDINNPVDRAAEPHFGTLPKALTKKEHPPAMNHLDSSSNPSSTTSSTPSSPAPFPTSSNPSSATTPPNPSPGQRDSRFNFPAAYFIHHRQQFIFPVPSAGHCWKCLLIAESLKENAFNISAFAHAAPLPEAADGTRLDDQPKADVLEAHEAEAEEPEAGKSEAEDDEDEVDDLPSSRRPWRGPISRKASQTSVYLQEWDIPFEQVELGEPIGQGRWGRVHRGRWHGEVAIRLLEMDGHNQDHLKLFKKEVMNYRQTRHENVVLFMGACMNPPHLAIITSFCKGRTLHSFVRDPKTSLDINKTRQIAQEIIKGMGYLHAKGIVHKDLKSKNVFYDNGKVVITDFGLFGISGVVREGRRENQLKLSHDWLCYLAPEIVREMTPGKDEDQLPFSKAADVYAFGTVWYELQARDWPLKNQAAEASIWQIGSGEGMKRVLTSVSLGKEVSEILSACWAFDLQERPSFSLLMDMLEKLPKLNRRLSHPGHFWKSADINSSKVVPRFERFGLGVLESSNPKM
UniProt Q9H0B6: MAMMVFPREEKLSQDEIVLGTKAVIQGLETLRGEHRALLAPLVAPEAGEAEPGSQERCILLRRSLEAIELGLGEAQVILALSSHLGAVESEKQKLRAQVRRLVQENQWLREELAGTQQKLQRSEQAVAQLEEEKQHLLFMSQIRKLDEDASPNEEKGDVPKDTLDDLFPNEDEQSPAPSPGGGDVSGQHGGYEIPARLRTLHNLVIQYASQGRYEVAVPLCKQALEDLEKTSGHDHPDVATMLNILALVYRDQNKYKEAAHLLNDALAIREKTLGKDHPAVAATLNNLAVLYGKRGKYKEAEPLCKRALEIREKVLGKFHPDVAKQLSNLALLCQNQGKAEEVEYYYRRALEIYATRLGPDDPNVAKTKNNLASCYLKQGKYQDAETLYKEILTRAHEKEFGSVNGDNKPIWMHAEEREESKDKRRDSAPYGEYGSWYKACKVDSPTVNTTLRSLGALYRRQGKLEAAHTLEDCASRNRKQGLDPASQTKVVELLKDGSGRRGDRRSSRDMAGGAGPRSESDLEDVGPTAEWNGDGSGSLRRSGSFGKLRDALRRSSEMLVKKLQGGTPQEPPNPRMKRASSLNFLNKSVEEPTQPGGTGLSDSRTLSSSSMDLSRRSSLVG
UniProt Q9NXV2: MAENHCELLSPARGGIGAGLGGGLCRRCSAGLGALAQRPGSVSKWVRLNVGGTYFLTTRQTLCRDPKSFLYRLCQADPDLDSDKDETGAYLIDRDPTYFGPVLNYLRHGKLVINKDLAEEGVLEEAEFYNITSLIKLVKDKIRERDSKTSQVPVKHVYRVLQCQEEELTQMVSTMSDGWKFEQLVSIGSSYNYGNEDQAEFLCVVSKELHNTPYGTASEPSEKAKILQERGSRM
UniProt Q9H3F6: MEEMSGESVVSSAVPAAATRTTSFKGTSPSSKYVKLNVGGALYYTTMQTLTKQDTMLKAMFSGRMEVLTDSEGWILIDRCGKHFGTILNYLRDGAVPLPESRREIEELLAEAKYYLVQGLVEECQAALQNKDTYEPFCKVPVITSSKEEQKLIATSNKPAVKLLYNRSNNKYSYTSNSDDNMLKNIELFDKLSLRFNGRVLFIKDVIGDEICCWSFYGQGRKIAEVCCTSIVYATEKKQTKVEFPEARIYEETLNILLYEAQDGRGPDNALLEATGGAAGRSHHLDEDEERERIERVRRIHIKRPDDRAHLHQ
UniProt Q8NC54: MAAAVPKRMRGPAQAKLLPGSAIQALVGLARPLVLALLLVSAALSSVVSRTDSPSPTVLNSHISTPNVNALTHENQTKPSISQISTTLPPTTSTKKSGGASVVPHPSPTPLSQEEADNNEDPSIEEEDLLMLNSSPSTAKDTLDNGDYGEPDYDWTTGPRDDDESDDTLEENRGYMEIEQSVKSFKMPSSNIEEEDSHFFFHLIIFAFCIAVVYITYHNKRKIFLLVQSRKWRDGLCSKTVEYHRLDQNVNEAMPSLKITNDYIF
UniProt Q9Y6Y0: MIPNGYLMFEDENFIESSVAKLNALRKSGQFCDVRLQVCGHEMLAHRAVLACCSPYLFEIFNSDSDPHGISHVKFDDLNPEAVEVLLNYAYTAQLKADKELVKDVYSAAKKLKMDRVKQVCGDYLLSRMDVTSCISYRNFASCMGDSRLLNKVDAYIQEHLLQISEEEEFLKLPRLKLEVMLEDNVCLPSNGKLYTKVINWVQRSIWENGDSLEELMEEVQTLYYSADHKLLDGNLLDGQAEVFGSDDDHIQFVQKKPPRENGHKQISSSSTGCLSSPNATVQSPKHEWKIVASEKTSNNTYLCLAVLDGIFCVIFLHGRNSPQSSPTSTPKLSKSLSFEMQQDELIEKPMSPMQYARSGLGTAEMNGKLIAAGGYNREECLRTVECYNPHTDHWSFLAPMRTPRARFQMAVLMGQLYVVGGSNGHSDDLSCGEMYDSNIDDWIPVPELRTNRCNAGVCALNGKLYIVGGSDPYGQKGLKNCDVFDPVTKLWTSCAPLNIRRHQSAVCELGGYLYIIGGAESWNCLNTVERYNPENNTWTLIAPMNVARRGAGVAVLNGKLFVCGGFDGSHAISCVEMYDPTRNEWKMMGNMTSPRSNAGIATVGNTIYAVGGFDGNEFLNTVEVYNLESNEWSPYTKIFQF
UniProt P33947: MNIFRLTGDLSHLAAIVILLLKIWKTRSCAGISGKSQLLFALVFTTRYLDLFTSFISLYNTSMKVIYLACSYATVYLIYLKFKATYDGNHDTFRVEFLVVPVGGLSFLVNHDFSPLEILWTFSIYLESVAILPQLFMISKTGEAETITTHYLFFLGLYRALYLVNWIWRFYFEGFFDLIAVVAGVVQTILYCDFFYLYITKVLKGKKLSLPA
UniProt Q9P0J7: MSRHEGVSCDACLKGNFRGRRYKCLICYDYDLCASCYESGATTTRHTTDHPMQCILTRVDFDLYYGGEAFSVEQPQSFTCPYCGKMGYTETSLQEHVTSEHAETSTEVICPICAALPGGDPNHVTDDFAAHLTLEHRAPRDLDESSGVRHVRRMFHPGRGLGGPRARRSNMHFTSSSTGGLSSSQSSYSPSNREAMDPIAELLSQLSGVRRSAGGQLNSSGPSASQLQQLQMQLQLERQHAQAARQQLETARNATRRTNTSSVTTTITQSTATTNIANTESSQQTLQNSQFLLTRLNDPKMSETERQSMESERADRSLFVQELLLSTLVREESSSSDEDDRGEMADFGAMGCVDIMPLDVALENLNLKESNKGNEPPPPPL
UniProt Q9Y219: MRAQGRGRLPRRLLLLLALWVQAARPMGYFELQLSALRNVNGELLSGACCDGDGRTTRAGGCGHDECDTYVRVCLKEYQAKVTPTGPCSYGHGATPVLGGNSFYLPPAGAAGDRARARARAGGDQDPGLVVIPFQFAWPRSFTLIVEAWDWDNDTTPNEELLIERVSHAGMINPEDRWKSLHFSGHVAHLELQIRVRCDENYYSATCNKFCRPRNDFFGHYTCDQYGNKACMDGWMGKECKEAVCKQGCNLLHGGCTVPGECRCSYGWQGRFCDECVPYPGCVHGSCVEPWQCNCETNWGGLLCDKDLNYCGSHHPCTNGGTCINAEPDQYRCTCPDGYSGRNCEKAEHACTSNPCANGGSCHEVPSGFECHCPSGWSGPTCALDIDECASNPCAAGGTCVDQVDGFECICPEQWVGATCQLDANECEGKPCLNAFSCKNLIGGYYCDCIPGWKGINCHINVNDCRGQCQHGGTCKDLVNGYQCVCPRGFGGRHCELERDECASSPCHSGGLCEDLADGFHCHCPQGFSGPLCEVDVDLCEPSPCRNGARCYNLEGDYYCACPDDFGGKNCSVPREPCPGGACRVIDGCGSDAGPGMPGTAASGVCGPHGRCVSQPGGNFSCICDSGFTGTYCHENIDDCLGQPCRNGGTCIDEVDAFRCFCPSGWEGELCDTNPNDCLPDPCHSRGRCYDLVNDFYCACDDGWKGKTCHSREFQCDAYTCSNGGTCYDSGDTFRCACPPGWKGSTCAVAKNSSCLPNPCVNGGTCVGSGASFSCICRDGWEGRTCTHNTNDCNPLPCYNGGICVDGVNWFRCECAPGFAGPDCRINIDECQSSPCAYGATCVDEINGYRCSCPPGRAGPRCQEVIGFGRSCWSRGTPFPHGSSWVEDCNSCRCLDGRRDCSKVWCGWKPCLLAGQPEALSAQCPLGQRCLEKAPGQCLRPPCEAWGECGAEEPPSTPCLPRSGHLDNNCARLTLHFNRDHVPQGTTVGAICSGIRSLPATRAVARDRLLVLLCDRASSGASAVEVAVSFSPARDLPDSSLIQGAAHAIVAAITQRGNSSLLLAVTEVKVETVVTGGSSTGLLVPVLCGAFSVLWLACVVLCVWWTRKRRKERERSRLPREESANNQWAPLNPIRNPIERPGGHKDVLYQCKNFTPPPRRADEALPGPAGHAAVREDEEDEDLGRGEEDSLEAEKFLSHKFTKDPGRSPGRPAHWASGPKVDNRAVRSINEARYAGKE
UniProt Q9NVX7: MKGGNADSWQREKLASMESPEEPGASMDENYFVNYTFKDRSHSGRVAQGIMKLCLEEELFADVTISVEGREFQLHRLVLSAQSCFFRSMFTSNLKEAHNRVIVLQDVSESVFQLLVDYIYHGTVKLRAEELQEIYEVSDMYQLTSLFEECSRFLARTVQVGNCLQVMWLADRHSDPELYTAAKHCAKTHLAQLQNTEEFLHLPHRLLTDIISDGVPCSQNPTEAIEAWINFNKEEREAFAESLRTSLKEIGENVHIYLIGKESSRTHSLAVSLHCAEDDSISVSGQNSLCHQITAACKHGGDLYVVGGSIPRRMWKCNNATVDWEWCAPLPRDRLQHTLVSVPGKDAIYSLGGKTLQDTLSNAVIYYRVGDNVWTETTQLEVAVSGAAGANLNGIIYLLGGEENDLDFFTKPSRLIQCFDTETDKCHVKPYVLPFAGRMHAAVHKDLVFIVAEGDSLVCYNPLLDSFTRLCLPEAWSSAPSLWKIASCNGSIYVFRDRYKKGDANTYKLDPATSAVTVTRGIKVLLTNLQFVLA
UniProt Q99661: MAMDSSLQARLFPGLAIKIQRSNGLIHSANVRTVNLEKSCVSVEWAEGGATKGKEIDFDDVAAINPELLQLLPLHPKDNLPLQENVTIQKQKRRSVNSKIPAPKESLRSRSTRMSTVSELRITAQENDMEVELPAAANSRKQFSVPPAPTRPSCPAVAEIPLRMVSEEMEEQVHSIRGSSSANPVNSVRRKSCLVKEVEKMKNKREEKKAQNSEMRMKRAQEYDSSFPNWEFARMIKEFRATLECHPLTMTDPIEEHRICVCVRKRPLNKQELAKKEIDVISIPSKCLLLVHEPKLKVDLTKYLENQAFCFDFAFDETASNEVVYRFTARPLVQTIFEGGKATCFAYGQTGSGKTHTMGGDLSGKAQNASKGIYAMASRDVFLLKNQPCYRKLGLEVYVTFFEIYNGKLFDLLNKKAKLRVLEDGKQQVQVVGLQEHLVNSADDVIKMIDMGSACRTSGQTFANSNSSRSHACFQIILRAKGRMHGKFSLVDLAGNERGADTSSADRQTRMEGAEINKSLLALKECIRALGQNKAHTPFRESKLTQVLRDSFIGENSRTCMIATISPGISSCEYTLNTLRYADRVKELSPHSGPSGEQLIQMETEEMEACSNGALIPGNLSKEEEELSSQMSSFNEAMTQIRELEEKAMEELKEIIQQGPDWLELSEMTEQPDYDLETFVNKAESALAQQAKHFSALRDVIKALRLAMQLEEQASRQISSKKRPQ

How the values were obtained:
Assay in all cases: log2 fold change, soluble protein after heating vs DMSO (PISA); higher = thermal stabilisation; K562 cells, 10 uM, 30 min; active = over 0.2 and 3.5 SD of the protein, either way, in both replicates (recomputed)
bafetinib = compound: Cc1ccc(NC(=O)c2ccc(CN3CC[C@H](N(C)C)C3)c(C(F)(F)F)c2)cc1Nc1nccc(-c2cncnc2)n1 [bafetinib]
Method in brief: (§1)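 Thermal stability values are relative to control samples and come from duplicates. They are expressed as log2 fold changes. For measurement, K562 cells (2×10^6 cells/mL) received 10 μM compound for 30 min, and aliquots were heated for 3 min over 48°C-58°C, pooled, and extracted at 4°C in PBS with 0.5% NP-40. Soluble protein, the supernatant after 21,000xg for 90 min, was quantified by TMTpro 16plex LC-MS/MS with equalised channel sums.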

[1] = compound: Cc1cccc(CC(=O)N2CCc3c2ccc(-c2cn(C)c4ncnc(N)c24)c3F)n1
Method in brief: as §1

nilotinib = compound: Cc1cn(-c2cc(NC(=O)c3ccc(C)c(Nc4nccc(-c5cccnc5)n4)c3)cc(C(F)(F)F)c2)cn1 [nilotinib]
Method in brief: as §1

[2] = compound: Cc1nc(Nc2n[nH]c3c2CN(C(=O)N[C@H](CN(C)C)c2ccccc2)C3(C)C)c2sccc2n1
Method in brief: as §1

dasatinib = compound: Cc1nc(Nc2ncc(C(=O)Nc3c(C)cccc3Cl)s2)cc(N2CCN(CCO)CC2)n1 [dasatinib]
Method in brief: as §1

[3] = compound: Cc1ncc(-c2ccnc(Nc3ccc(S(C)(=O)=O)cc3)n2)n1C(C)C
Method in brief: as §1

[4] = compound: Cn1cc(-c2ccc3c(c2)CCN3C(=O)Cc2cccc(C(F)(F)F)c2)c2c(N)ncnc21
Method in brief: as §1

[5] = compound: Cn1cc(-c2ccc3nnc(C(F)(F)c4ccc5ncccc5c4)n3n2)cn1
Method in brief: as §1

tipifarnib = compound: Cn1cncc1[C@@](N)(c1ccc(Cl)cc1)c1ccc2c(c1)c(-c1cccc(Cl)c1)cc(=O)n2C [tipifarnib]
Method in brief: as §1

mubritinib = compound: FC(F)(F)c1ccc(/C=C/c2nc(COc3ccc(CCCCn4ccnn4)cc3)co2)cc1 [mubritinib]
Method in brief: as §1

Target | log2 fold change (bafetinib) | log2 fold change [1] | log2 fold change (nilotinib) | log2 fold change [2] | log2 fold change (dasatinib) | log2 fold change [3] | log2 fold change [4] | log2 fold change [5] | log2 fold change (tipifarnib) | log2 fold change (mubritinib)
KPTN (UniProt Q9Y664) | inactive: -0.158 | inactive: 0.118 | inactive: 0.009 | inactive: -0.005 | inactive: -0.141 | inactive: -0.02 | inactive: 0.196 | inactive: 0.063 | inactive: 0.003 | inactive: 0.006
KDSR (UniProt Q06136) | inactive: -0.008 | inactive: 0 | inactive: 0.019 | inactive: 0.02 | inactive: 0.101 | inactive: 0.012 | inactive: 0.016 | inactive: 0.03 | inactive: 0.009 | inactive: 0.019
KPNA1 (UniProt P52294) | inactive: 0 | inactive: -0.02 | inactive: -0.103 | inactive: -0.074 | inactive: 0.003 | inactive: 0.047 | inactive: -0.089 | inactive: -0.008 | inactive: -0.088 | inactive: -0.06
KIF3A (UniProt Q9Y496) | inactive: 0.022 | inactive: -0.047 | inactive: -0.128 | inactive: 0.054 | inactive: -0.068 | inactive: 0.093 | inactive: 0.025 | inactive: -0.043 | inactive: -0.031 | inactive: 0.018
KPNA2 (UniProt P52292) | inactive: 0.127 | inactive: 0.028 | inactive: -0.077 | inactive: -0.103 | inactive: 0.016 | inactive: -0.086 | inactive: -0.238 | inactive: -0.174 | inactive: 0.081 | inactive: -0.125
JMJD6 isoform 3 (UniProt Q6NYC1) | inactive: -0.067 | inactive: 0.06 | inactive: -0.011 | inactive: -0.254 | inactive: -0.009 | inactive: -0.098 | inactive: -0.008 | inactive: -0.047 | inactive: 0.036 | inactive: -0.065
KLC1 isoform 6 (UniProt Q07866) | inactive: 0.009 | inactive: 0 | inactive: -0.005 | inactive: -0.077 | inactive: -0.025 | inactive: -0.01 | inactive: 0.027 | inactive: 0.024 | inactive: -0.023 | inactive: 0.049
KIF21A isoform 4 (UniProt Q7Z4S6) | inactive: 0.051 | inactive: 0.079 | inactive: -0.104 | inactive: 0.083 | inactive: -0.193 | inactive: 0.037 | inactive: -0.066 | inactive: -0.073 | inactive: -0.039 | inactive: 0.11
KSR1 (UniProt Q8IVT5) | inactive: 0.035 | inactive: -0.052 | inactive: -0.052 | inactive: -0.303 | inactive: -0.228 | inactive: -0.021 | inactive: 0.003 | inactive: -0.129 | inactive: -0.086 | inactive: -0.233
KLC2 (UniProt Q9H0B6) | inactive: 0.013 | inactive: 0.018 | inactive: -0.049 | active: -0.388 | inactive: -0.07 | inactive: 0.025 | inactive: 0.05 | inactive: 0.046 | inactive: 0.031 | inactive: 0.009
KCTD5 (UniProt Q9NXV2) | inactive: -0.118 | inactive: -0.122 | inactive: 0.038 | inactive: 0.03 | inactive: -0.042 | inactive: 0.002 | inactive: 0.076 | inactive: 0.018 | inactive: 0.04 | inactive: 0.078
KIAA1522 isoform 2 (UniProt Q9P206) | inactive: 0.049 | inactive: 0.028 | inactive: 0.03 | inactive: -0.078 | inactive: -0.018 | inactive: -0.027 | inactive: 0.027 | inactive: -0.053 | inactive: 0.14 | inactive: -0.009
KCTD10 (UniProt Q9H3F6) | inactive: -0.059 | inactive: -0.036 | inactive: 0.002 | inactive: -0.088 | inactive: 0.056 | inactive: 0.074 | inactive: 0.012 | inactive: 0.153 | inactive: 0.058 | inactive: -0.009
KCT2 (UniProt Q8NC54) | inactive: -0.114 | inactive: 0.045 | inactive: -0.01 | inactive: -0.023 | inactive: 0.045 | inactive: 0.021 | inactive: 0.01 | inactive: 0.073 | inactive: 0.125 | inactive: 0.052
KEL (UniProt P23276) | inactive: -0.027 | inactive: -0.002 | inactive: 0.017 | inactive: -0.032 | inactive: -0.019 | inactive: 0.004 | inactive: 0.083 | inactive: 0.003 | inactive: 0.031 | active: -0.591
IVNS1ABP (UniProt Q9Y6Y0) | inactive: 0.157 | inactive: 0.1 | inactive: -0.079 | inactive: -0.051 | inactive: -0.146 | inactive: -0.003 | inactive: -0.008 | inactive: 0.067 | inactive: -0.051 | inactive: -0.113
KDELR2 (UniProt P33947) | inactive: -0.088 | inactive: 0.072 | inactive: -0.069 | inactive: 0.035 | inactive: 0.097 | inactive: -0.082 | inactive: 0.194 | inactive: 0.264 | inactive: 0.125 | inactive: -0.049
KAZN isoform 3 (UniProt Q674X7) | inactive: 0.01 | inactive: -0.052 | inactive: 0.065 | inactive: 0.06 | inactive: -0.022 | inactive: -0.078 | inactive: -0.005 | inactive: 0.009 | inactive: -0.027 | inactive: 0.091
JUND (UniProt P17535) | inactive: -0.001 | inactive: -0.025 | inactive: -0.043 | inactive: 0.04 | inactive: 0.027 | inactive: 0.052 | inactive: -0.039 | inactive: 0.078 | inactive: 0.06 | inactive: 0.005
KCMF1 (UniProt Q9P0J7) | inactive: 0.05 | inactive: 0.156 | inactive: -0.005 | inactive: 0.018 |  | inactive: -0.07 | inactive: 0.06 | inactive: -0.04 | inactive: -0.176 | inactive: 0.062
JAG2 (UniProt Q9Y219) | inactive: -0.187 |  | inactive: 0.056 | inactive: -0.166 | inactive: -0.067 | inactive: 0.049 | inactive: 0.026 | inactive: 0.032 | inactive: -0.024 | 
KBTBD4 isoform 2 (UniProt Q9NVX7) | inactive: 0.003 |  | inactive: 0.047 | inactive: 0.019 | inactive: -0.037 | inactive: 0.019 | inactive: 0.17 | inactive: -0.028 |  | inactive: 0.064
KLF16 (UniProt Q9BXK1) | inactive: 0.058 | inactive: -0.098 | inactive: 0.033 | inactive: -0.279 | inactive: -0.037 | inactive: 0.16 |  |  | inactive: 0.037 | inactive: -0.041
KIF26A (UniProt Q9ULI4) | inactive: -0.053 |  | inactive: 0.045 | inactive: -0.042 |  | inactive: 0.007 |  | inactive: -0.046 | inactive: -0.057 | inactive: -0.013
KIF2C (UniProt Q99661) | inactive: 0.1 | inactive: 0.122 | inactive: -0.082 | inactive: -0.054 | inactive: -0.15 | inactive: 0.032 | inactive: 0.053 | inactive: 0.039 | inactive: -0.103 | inactive: 0.081

In another format: results already given.

| Target | log2 fold change (bafetinib) | log2 fold change [1] | log2 fold change (nilotinib) | log2 fold change [2] | log2 fold change (dasatinib) | log2 fold change [3] | log2 fold change [4] | log2 fold change [5] | log2 fold change (tipifarnib) | log2 fold change (mubritinib) |
| --- | --- | --- | --- | --- | --- | --- | --- | --- | --- | --- |
| KPNA2 (UniProt P52292) | inactive: 0.127 | inactive: 0.028 | inactive: -0.077 | inactive: -0.103 | inactive: 0.016 | inactive: -0.086 | inactive: -0.238 | inactive: -0.174 | inactive: 0.081 | inactive: -0.125 |
| KSR1 (UniProt Q8IVT5) | inactive: 0.035 | inactive: -0.052 | inactive: -0.052 | inactive: -0.303 | inactive: -0.228 | inactive: -0.021 | inactive: 0.003 | inactive: -0.129 | inactive: -0.086 | inactive: -0.233 |
| KIAA1522 isoform 2 (UniProt Q9P206) | inactive: 0.049 | inactive: 0.028 | inactive: 0.03 | inactive: -0.078 | inactive: -0.018 | inactive: -0.027 | inactive: 0.027 | inactive: -0.053 | inactive: 0.14 | inactive: -0.009 |
| KCTD10 (UniProt Q9H3F6) | inactive: -0.059 | inactive: -0.036 | inactive: 0.002 | inactive: -0.088 | inactive: 0.056 | inactive: 0.074 | inactive: 0.012 | inactive: 0.153 | inactive: 0.058 | inactive: -0.009 |
| KAZN isoform 3 (UniProt Q674X7) | inactive: 0.01 | inactive: -0.052 | inactive: 0.065 | inactive: 0.06 | inactive: -0.022 | inactive: -0.078 | inactive: -0.005 | inactive: 0.009 | inactive: -0.027 | inactive: 0.091 |
| JUND (UniProt P17535) | inactive: -0.001 | inactive: -0.025 | inactive: -0.043 | inactive: 0.04 | inactive: 0.027 | inactive: 0.052 | inactive: -0.039 | inactive: 0.078 | inactive: 0.06 | inactive: 0.005 |
| KBTBD4 isoform 2 (UniProt Q9NVX7) | inactive: 0.003 |  | inactive: 0.047 | inactive: 0.019 | inactive: -0.037 | inactive: 0.019 | inactive: 0.17 | inactive: -0.028 |  | inactive: 0.064 |
